Two sequences from patent US20210330692, “CCR7 APTAMERS AND USES THEREOF” (CITY OF HOPE, published 2021) can be followed below.

The chains behind the UniProt entries cited, without tags or fusion partners. Residues count along the entry.
UniProt P32248, 25-378: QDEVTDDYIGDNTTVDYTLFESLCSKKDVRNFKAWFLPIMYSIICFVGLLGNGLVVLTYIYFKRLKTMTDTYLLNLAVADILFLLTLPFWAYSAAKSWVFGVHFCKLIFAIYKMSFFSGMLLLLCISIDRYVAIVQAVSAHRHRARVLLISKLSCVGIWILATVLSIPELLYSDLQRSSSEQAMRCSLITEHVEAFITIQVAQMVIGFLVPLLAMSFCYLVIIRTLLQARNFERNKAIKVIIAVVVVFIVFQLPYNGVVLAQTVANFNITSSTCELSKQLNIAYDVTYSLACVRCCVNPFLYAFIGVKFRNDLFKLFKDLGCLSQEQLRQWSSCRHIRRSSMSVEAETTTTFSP

This series deals with CCR7 (UniProt P32248). The series is described as follows: flow cytometry. The note with it: dose-dependent, protein on the cell surface. (In general: Flow cytometry measures light scatter and fluorescence of single cells or particles in a stream.)

Where cells or extracts were used, other partners may take part.

Turning to “GGGAGGACGAUGCGGUUUCGUCCUGAGUUCGUGUCCUCGUCUGUGCAGACGACUCGCCCGA [C-1A]”, under “highest affinity of the aptamers tested”, the binding result is recorded as “binds”.

Take “GGGAGGACGAUGCGGAAUUCGUCAAAGUCGUUUAUUUCGUCUGUGCAGACGACUCGCCCGA [C-2A]”: the binding result is “binds”.
